The series deals with T1, Herves transposase (Anopheles gambiae) (UniProt Q5QIT5).
T1 sequence (looked up): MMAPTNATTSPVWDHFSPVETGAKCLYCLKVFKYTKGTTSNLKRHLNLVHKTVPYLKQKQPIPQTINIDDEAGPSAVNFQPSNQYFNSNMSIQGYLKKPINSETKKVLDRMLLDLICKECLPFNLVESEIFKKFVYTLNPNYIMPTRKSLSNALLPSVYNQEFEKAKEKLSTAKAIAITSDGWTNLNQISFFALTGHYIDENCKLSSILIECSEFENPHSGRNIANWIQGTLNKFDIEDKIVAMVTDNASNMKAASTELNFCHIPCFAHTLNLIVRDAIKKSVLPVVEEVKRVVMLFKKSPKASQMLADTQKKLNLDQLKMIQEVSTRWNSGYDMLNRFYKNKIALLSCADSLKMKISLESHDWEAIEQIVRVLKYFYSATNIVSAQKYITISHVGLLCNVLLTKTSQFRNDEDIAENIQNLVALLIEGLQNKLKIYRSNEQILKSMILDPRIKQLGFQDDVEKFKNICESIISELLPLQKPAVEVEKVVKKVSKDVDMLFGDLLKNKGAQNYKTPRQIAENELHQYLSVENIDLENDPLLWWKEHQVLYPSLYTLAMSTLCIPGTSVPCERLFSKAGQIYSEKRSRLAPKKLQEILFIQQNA
The series can be described thus: competition with a labelled probe. As to conditions: vs (CGATTCAT)4 probe, EMSA: 16 mM Tris pH 8.0, 150 mM NaCl, 1 mM DTT, 0.25% Triton X, 0.2 ug BSA, 0.4 ug T3 ss oligo, 0.5 ug poly(dI-dC), 4 C, 100 nM DNA, 850 nM transposase, recombinant protein, residues 1-603, protein details: His tag (pBAD myc/HisA vector). In general terms: A gel shift assay detects complexes by their altered migration in electrophoresis.

The comparison behind a weaker result is the experiment's own reference, which may not be listed here. Protein sequences can lack the tags named with them.

In the case of “CGATTCACCGATTCACCGATTCACCGATTCAC (double strand) [(CGATTCAC)4]”, the binding result (partial) is reported as “binds more weakly”.
“CGTTCATCGTTCATCGTTCATCGTTCAT (double strand) [(CGTTCAT)4]”: the binding result (did not compete fully, weak) is recorded as “binds more weakly”.

Source of the values: publication PMC3143072, “DNA binding activities of the Herves transposase from the mosquito Anopheles gambiae”.
